In publication PMC4764856:
These are yes or no findings as the source states them, for the method shown. Binding seen in cells or lysates may run through a third protein. Some results given as binding are weak or reduced against the parent protein; the word gives no strength.

Target: GFP-Smad2, Q15796
Assay: co-IP; HEK 293 cells stably expressing the GFP fusion, with or without Activin for 1 hr; lysed in cold RIPA buffer; GFP antibody with Protein-G Sepharose beads, 4 °C overnight; blot with anti-Smad4
Conditions: remark: other sources report otherwise

B1: Smad4, Q13485 1-552 (protein)
chain: MDNMSITNTPTSNDACLSIVHSLMCHRQGGESETFAKRAIESLVKKLKEKKDELDSLITAITTNGAHPSKCVTIQRTLDGRLQVAGRKGFPHVIYARLWRWPDLHKNELKHVKYCQYAFDLKCDSVCVNPYHYERVVSPGIDLSGLTLQSNAPSSMMVKDEYVHDFEGQPSLSTEGHSIQTIQHPPSNRASTETYSTPALLAPSESNATSTANFPNIPVASTSQPASILGGSHSEGLLQIASGPQPGQQQNGFTGQPATYHHNSTTTWTGSRTAPYTPNLPHHQNGHLQHHPPMPPHPGHYWPVHNELAFQPPISNHPAPEYWCSIAYFEMDVQVGETFKVPSSCPIVTVDGYVDPSGGDRFCLGQLSNVHRTEAIERARLHIGKGVQLECKGEGDVWVRCLSDHAVFVQSYYLDREAGRAPGDAVHKIYPSAYIKVFDLRQCHRQMQQQAATAQAAAAAQAAAVAGNIPGPGSVGGIAPAISLSAAAGIGVDDLRRLCILRMSFVKGWGPDYPRQSIKETPCWIEIHLHRALQLLDEVLHTMPIADPQPLD
B1 was tested, and the binding was “binds”.
